PubChem BioAssay AID720505 – Drosophila RNAi Screening Center | 2013
The screen tested about 20,000 reagents; this is an unselected part of those that have a named target and a result. Over the whole deposit, about 2,100 (10%) are marked active. 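Raw plate signals without normalisation; calls rest on control-based scores that were not deposited; replicate 2 separates called from uncalled poorly.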 Reagents against one gene are numbered here. Not stated in the record: the amount of reagent, the time to read-out.

- Screen: 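Knock-downs that reduce calcium influx once internal stores are emptied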 (primary screen)
- System: Drosophila S2R+ cells
- Knock-down reagent: long dsRNA against Drosophila genes
- Treatment: thapsigargin (2 µM) in calcium-free buffer to empty internal stores, then 2 mM calcium added back
- Detection: 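Stores emptied by 2 µM thapsigargin without calcium, then 2 mM calcium re-added; fluo-4 fluorescence followed by FLIPR in 384-well plates, per-well averaged endpoint, raw; two screen passes, some wells retested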
- Reading the numbers: calcium signal and retest calcium signal: higher = more calcium entry after store depletion
- Rule for the call: 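Knock-downs counted as hits when calcium entry dropped relative to STIM1 positive and Rho1 negative controls present on each plate; roughly 1500 genes called, with reductions of differing size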
- Meaning of the calls: active = called as lowering calcium entry; inactive = not called

What did the screen give for CG17560?
calcium signal, replicate 1: 119; calcium signal, replicate 2: 146; call: inactive

Which result is listed for nonC #1?
calcium signal, replicate 1: 197; calcium signal, replicate 2: 125; call: inactive

With nonC #2, what does the deposit list?
calcium signal, replicate 1: 227; calcium signal, replicate 2: 189; call: inactive

With scramb2, what was measured?
calcium signal, replicate 1: 78.8; calcium signal, replicate 2: 84.1; call: inactive

Taken from above.
Entry of nonC #2 in “calcium signal, replicate 2”: 189
Result for CG17560 under “call”: inactive

The listing continues:
What did the screen give for nw #1?
calcium signal, replicate 1: 153; calcium signal, replicate 2: 104; call: inactive

With nw #2, what does the deposit list?
calcium signal, replicate 1: 101; calcium signal, replicate 2: 136; call: inactive

For nw #3, what does the deposit list?
calcium signal, replicate 1: 177; calcium signal, replicate 2: 182; call: inactive

With Mdr65, how do the results read?
calcium signal, replicate 1: 100; calcium signal, replicate 2: 70.5; retest calcium signal, replicate 1: 124; retest calcium signal, replicate 2: 121; call: inactive

With CG14820, what does the deposit list?
calcium signal, replicate 1: 121; calcium signal, replicate 2: 84.6; call: inactive

With corn #1, what was measured?
calcium signal, replicate 1: 141; calcium signal, replicate 2: 148; call: inactive

Which result is listed for corn #2?
calcium signal, replicate 1: 109; calcium signal, replicate 2: 238; call: inactive

Which result is listed for CG4269?
calcium signal, replicate 1: 121; calcium signal, replicate 2: 78.2; call: active
